Measurements published in ChEMBL document CHEMBL1133658 (J Med Chem, 2000).

Sequences of proteins named here, by UniProt entry; tags and fusion partners are left off.
UniProt P02550, whole entry, looked up: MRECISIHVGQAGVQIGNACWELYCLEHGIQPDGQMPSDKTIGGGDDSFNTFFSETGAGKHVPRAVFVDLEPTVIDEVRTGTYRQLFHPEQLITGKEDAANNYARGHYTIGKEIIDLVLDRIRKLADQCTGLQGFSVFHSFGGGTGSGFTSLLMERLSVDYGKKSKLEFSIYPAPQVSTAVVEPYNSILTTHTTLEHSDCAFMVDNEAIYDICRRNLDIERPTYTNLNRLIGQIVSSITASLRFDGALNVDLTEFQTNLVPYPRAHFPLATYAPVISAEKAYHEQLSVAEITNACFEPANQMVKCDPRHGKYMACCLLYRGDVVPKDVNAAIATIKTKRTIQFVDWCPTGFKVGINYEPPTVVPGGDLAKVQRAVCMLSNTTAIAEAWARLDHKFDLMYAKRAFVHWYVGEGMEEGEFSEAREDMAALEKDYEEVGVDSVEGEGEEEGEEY

Biological target: Tubulin alpha chain (Sus scrofa, UniProt P02550)

SMILES | IC50
COc1cc2c(c(OC)c1OC)-c1ccc(SC)c(=O)cc1[C@H](NC(C)=O)CC2 | 9.77 µM
COc1cc2c(c(OC)c1OC)-c1ccc(SC)c(=O)cc1[C@@H](NC(C)=O)CC2 [THIOCOLCHICINE] | 0.646 µM
